A short description of this data set: general procedure: solution-phase peptide synthesis; isobutyl chloroformate / N-methylmorpholine (mixed anhydride); HOBT / 1-(3-dimet). Conditions: coupling step.

The substance “N-alpha-(3-Carbomethoxypropionyl)-N-epsilon-benzyloxycarbonyl-L-lysyl-L-va lyl-L-prolyl-L-valinal diethylacetal” showed a step yield of 58%.

The values are drawn from US4596789A (ICI Americas Inc., priority 1983, dated 1986).
